Data from paper PMC4924727.
These are yes or no findings as the source states them, for the method shown. Binding seen in cells or lysates may run through a third protein. Binding calls can cover weak binding; strength is not graded here.

Target: endogenous Mgl-1 (MDCK cells) (canine (endogenous in MDCK))
Experiment: co-IP; endogenous proteins of MDCK cell lysates; immunoprecipitation with anti-USP11 or anti-Mgl-1 antibody; also in cells transfected with RanBPM shRNA #1 and #2 (interaction decreased)

binding: binds
B1: endogenous USP11 (MDCK cells) (enzyme, UniProt Q01988 1-445)
chain: NSARADLCVALAKHTGMSPERMMVADVFSHRFYKIYQLEESLSSILDRDDIFIYEVSGRSAIGENSREDVVLPIYLRERTPARDYNNSYYGLMLFGHPLLVSVPRDRLSWDALYHILLYRLSRYVTRPSSDDEDDGDEKDIEDKDNIPKPGHVAGASSQDSGAGSGGAQLWSRRRKPAPVDNSPGPSHWPQRARRKHLFTLQTVNSNGTSDRSTFNEDTHAQPYIAIDWEPEMKKRYYDEVEAEGYVKHDCVGYVLKKAPVRLQECIELFTTVETLEKENPWFCPTCKQHQLATKKLDLWMLPETLIIHLKRFSYTKFSREKLDTLVEFPIRDLDFSEFVIKPQNESAPELYKYDLIAVSNHYGGLRDGHYTTFACNKDSGQSDYFDDNSVSPVTENQIESKAAYVLFYQRQDVARRLQPQPSSSDPPASPACGSPPNSEFMDVN
